Data: patent US10723751B2 (priority 2013, dated 2020)
For at least one compound, name, drawing or mass did not settle the structure.

Test system: Epstein-Barr virus
Assay: Treatment of Epstein-Barr virus infectious mononucleosis in a human
Format: in vivo
Conditions: large dose injection

## C[C@H]1C[C@@H]2[C@H]([C@@H](O)C[C@@]3(C)[C@H]2CC[C@]3(O)C(=O)CO)[C@@]2(C)C=CC(=O)C=C12 [methylprednisolone]
  outcome of initial treatment: helped to reduce the severe lymph gland swelling in the neck
